Experiment [1] deals with T1, UNC-10(K77/79E) (aa 1-601) used in the co-immunoprecipitation (C. elegans) (UniProt Q22366).
T1 sequence: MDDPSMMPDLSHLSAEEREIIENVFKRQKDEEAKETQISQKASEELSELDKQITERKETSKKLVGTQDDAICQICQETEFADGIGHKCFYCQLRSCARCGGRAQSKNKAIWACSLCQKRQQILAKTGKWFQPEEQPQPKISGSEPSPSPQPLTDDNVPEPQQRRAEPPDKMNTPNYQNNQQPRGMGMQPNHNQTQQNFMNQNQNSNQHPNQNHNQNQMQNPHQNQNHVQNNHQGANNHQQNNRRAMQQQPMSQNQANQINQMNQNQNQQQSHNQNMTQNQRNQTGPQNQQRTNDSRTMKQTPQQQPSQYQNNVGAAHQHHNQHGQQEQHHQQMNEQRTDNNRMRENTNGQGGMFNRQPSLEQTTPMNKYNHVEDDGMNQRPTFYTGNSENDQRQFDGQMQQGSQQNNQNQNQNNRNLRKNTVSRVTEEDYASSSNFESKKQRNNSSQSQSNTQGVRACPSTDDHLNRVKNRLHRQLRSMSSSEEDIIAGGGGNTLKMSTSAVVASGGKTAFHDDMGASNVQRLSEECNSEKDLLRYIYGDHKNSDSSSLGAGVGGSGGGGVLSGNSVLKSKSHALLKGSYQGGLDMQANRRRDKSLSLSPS
Nature of the experiment: co-IP.

Experiment [2] has as its target T2, FLAG-UNC-10 (aa 1-601), wild type (C. elegans) (UniProt Q22366).
T2 sequence: T1 sequence with E77K, E79K
Briefly: co-IP.

One substance from paper doi:10.1101/388868 can be followed below.

Positions count from the first letter of the chain named. These are yes or no findings as the source states them, for the method shown. In cells and extracts the contact can be indirect. For some assays here: Binding calls can cover weak binding; strength is not graded here. For some assays here: Sequences can lack the tags named with a protein.

On to “HA-LNTD (aa 1-605) of UNC-13L (C. elegans) (domain or fragment)”, for which the binding result in experiment [1] is recorded as “no binding”; in experiment [2], “binds”.
